{"source": "paper PMC3607609", "about": "(PLoS ONE, 2013)", "key": {"other Cav subtypes": {"system": "other Cav subtypes", "details": "cited from earlier work"}, "[1]": {"system": "resistant KCl-evoked Ca^2+ responses in SH-SY5Y cells", "format": "cell-based, human", "details": "in presence of CVID and nifedipine; agatoxins and SNX 482 up to 10 µM, mibefradil 30 µM"}}}
{"molecule": "COC(=O)C1=C(C)NC(C)=C(C(=O)OC)C1c1ccccc1[N+](=O)[O-]", "note": "[nifedipine]", "values": [{"measurement": "Effect on other Cav subtypes (in words)", "setting": "other Cav subtypes", "result": "does not affect responses of other Cav subtypes"}, {"measurement": "Effect on resistant KCl-evoked Ca2+ responses (in words)", "setting": "[1]", "result": "not blocked"}]}
